Reference: PubChem BioAssay AID686943 (Drosophila RNAi Screening Center, 2013)

- Screen: 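Search across the genome for regulators of signalling from receptor tyrosine kinase to ERK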 (primary screen)
- Cell system: Drosophila S2R+ haemocyte-like cells expressing YFP-tagged ERK (Rolled)
- Reagents: long dsRNA against Drosophila genes
- Treatment: insulin stimulation versus unstimulated cells; dose and duration not given
- Measurement: 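Per-plate z-scores of phospho-ERK immunostaining normalised to YFP-tagged ERK, measured with and without insulin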
- Direction: replicate 1, z-score of dpERK with insulin and replicate 2, z-score of dpERK with insulin: higher = more active ERK per ERK-YFP after insulin
The screen tested about 23,000 reagents; shown is an unselected part of those with a known target gene and a result. 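Extra replicates exist only for a retested subset of genes; insulin dose and duration not given; both raised and lowered dpERK matter.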 Further read-outs or replicates are left out here. The record does not give: the amount of reagent, the time to read-out.

| target gene | amplicon | replicate 1, z-score of dpERK with insulin | replicate 2, z-score of dpERK with insulin |
| --- | --- | --- | --- |
| CG4367 | DRSC15568 | 0.1 | -0.31 |
| Rrp45 | DRSC20198 | -0.76 | -0.12 |
| dj-1beta | DRSC14599 | -0.25 | -0.1 |
| PIG-G (Phosphatidylinositol glycan anchor biosynthesis class G) | DRSC06823 | 1.44 | 0.89 |
| CG16854 | DRSC02536 | 0.11 | 0.22 |
| Tpr2 (Tetratricopeptide repeat protein 2) | DRSC03461 | -0.49 | 1.04 |
| mars | DRSC06656 | -0.75 | -0.4 |
| CG14591 | DRSC04868 | 0.87 | 0.95 |
| LpR1 (Lipophorin receptor 1) | DRSC15665 | 0.01 | -0.37 |
| LpR1 (Lipophorin receptor 1) | DRSC15669 | -0.6 | 0.01 |
| LpR1 (Lipophorin receptor 1) | DRSC15670 | 0.04 | 0 |
| ergic53 | DRSC11389 | 0.58 | 0.46 |
| Grik | DRSC15846 | -0.39 | -2.09 |
| Grik | DRSC15847 | 0.35 | 0.11 |
| nesd (nessun dorma) | DRSC02099 | -0.23 | 0.88 |
| Vlet (Valette) | DRSC19845 | 1.22 | 0.95 |
| CG30430 | DRSC22260 | 1.03 | 1.15 |
| Hexo2 (Hexosaminidase 2) | DRSC18671 | 1.6 | 0.6 |
| Osi10b (Osiris 10b) | DRSC12279 | 2.2 | 0.87 |
| CG12204 | DRSC19442 | -0.58 | -0.43 |

Continued (5 carried over from the part before).
| target gene | amplicon | replicate 1, z-score of dpERK with insulin | replicate 2, z-score of dpERK with insulin |
| --- | --- | --- | --- |
| Vlet (Valette) | DRSC19845 | 1.22 | 0.95 |
| CG30430 | DRSC22260 | 1.03 | 1.15 |
| Hexo2 (Hexosaminidase 2) | DRSC18671 | 1.6 | 0.6 |
| Osi10b (Osiris 10b) | DRSC12279 | 2.2 | 0.87 |
| CG12204 | DRSC19442 | -0.58 | -0.43 |
| NELF-B | DRSC17734 | 1.26 | 0.99 |
| CG8202 | DRSC16396 | 0.83 | -0.09 |
| CG7196 (retired record) | DRSC01000 | 0.73 | 0.1 |
| CG7196 (retired record) | DRSC03023 | -0.15 | -1.01 |
| U4-U6-60K (U4-U6 small nuclear riboprotein factor 60K) | DRSC10624 | 0.88 | 0.61 |
| CCT3 (Chaperonin containing TCP1 subunit 3) | DRSC16602 | -1.7 | -1.07 |
| fws (four way stop) | DRSC02969 | -0.06 | -0.29 |
| atms (antimeros) | DRSC12310 | 1.56 | 0.97 |
| Sur (Sulfonylurea receptor) | DRSC03447 | -0.26 | 0.83 |
| CG33978 | DRSC17106 | -0.61 | -0.04 |
| Spindly | DRSC00430 | -2 | -2.27 |
| CG5265 | DRSC15756 | 0.09 | 0.36 |
| Mnn1 (Menin 1) | DRSC03368 | -0.33 | 0.59 |
| CG10307 | DRSC04057 | 1.19 | 0.57 |
| CG3386 | DRSC08566 | -0.83 | -0.79 |
| PGAP1 (Post-GPI attachment to proteins 1) | DRSC18286 | -0.45 | -0.45 |
| CG5096 | DRSC02813 | 0.3 | 0.61 |
| Sting | DRSC06615 | 1.4 | 1.74 |
| Dus3 (Dihydrouridine synthase 3) | DRSC02059 | 0.62 | 0.51 |
